# Laboratory results taken from PubChem BioAssay AID328 (DTP/NCI, 2004).
# The list is a part of this screen's results and no random one: it is rich in T/C values a quarter to a half above the control, in often repeated tests (any T/C) and in doses without a T/C. Further doses and runs are listed elsewhere. T/C: endpoint of the treated group in % of that of the vehicle group. Some entries give survivors of the animals treated and no T/C: the source files T/C as zero there, which appears to mark a toxic dose or a test without result, not a measured value. Some doses without a T/C left all or most animals alive at the check, yet need not have been tolerated: the source hardly ever lists a survival T/C far under the control, and the zero likely stands for such cases as well. Survivors were counted at the toxicity check, usually on the fifth day, unless a day is given; later deaths do not show. Schedules are NCI's codes, taken here to give the interval after Q, in days (D) or hours (H), and the number of doses after X. Some entries hold several experiments; the results are listed from low to high. Some molecules as drawn cover several salts, stereoisomers or complexes of the source; a dose is that of the sample tested. For survival time, the PubChem record calls one and a half times the control and up active, and a quarter to a half above the control has no call in these data; cut-offs in other NCI protocols can differ. Some T/C values carry the count of animals alive at the toxicity check (mostly the fifth day); without a count, all were alive then.
# Tested on: BDF1 mice, P388 leukemia ip, median survival T/C
# Experiment: NCI In Vivo Anticancer Drug Screen. Data for tumor model P388 Leukemia (intraperitoneal) in B6D2F1 (BDF1) mice
# Conditions: T/C endpoint: median survival time, higher T/C = longer survival
# In short: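 Transplantable tumour in mice; compound vs vehicle dosing; survival scored; ratio of treated to control reported.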
# [1] = dose: 4.0 mg/kg/injection, schedule: Q01DX009 (ip), vehicle: saline
# [2] = dose: 200.0 mg/kg/injection, schedule: Q04DX003 (ip), vehicle: saline
# [3] = dose: 200.0 mg/kg/injection, schedule: Q04DX003 (ip), vehicle: saline with Tween-80
# [4] = dose: 200.0 mg/kg/injection, schedule: Q01DX009 (ip), vehicle: saline with Tween-80
# [5] = dose: 200.0 mg/kg/injection, schedule: Q01DX009 (ip), vehicle: saline
# [6] = dose: 100.0 mg/kg/injection, schedule: Q01DX009 (ip), vehicle: saline with Tween-80
# [7] = dose: 0.78 mg/kg/injection, schedule: Q01DX009 (ip), vehicle: saline
# [8] = dose: 1.56 mg/kg/injection, schedule: Q01DX009 (ip), vehicle: saline
# [9] = dose: 3.13 mg/kg/injection, schedule: Q01DX009 (ip), vehicle: saline
smiles,measurement,setting,value
C[C@H]1CN1C1=CC(=O)C(N2C[C@@H]2C)=CC1=O,T/C,"dose: 0.06 mg/kg/injection, schedule: Q01DX009 (ip), vehicle: saline",127 % of control
same,T/C,"dose: 0.25 mg/kg/injection, schedule: Q01DX009 (ip), vehicle: saline",131 % of control
same,T/C,"dose: 2.0 mg/kg/injection, schedule: Q01DX009 (ip), vehicle: saline",133 % of control
same,survivor count,[1],6 of 6
same,survivor count,"dose: 8.0 mg/kg/injection, schedule: Q01DX009 (ip), vehicle: Klucel (hydroxypropylcellulose) (HPC)",6 of 6
same,survivor count,"dose: 8.0 mg/kg/injection, schedule: Q01DX009 (ip), vehicle: saline",4 of 6
N[C@H](C(=O)O)[C@H]1ON=C(Cl)[C@@H]1O,T/C,[1],138 % of control
same,T/C,"dose: 15.0 mg/kg/injection, schedule: Q01DX009 (ip), vehicle: saline",149 % of control
same,T/C,"dose: 22.0 mg/kg/injection, schedule: Q01DX009 (ip), vehicle: other",141 % of control
same,T/C,"dose: 66.0 mg/kg/injection, schedule: Q01DX009 (ip), vehicle: other",145 % of control
same,T/C,"dose: 100.0 mg/kg/injection, schedule: Q04DX003 (ip), vehicle: saline",129 % of control
same,T/C,"dose: 150.0 mg/kg/injection, schedule: Q01DX009 (ip), vehicle: other",125 % of control
same,T/C,[2],148 % of control
same,T/C,"dose: 400.0 mg/kg/injection, schedule: Q01DX009 (ip), vehicle: saline with Tween-80",140 % of control
CCCCCCCCCCCCCCCC[N+](C)(C)C(C)c1ccccc1 (stereo unspecified),survivor count,"dose: 6.25 mg/kg/injection, schedule: Q04DX003 (ip), vehicle: saline with Tween-80",4 of 6
same,survivor count,"dose: 12.5 mg/kg/injection, schedule: Q04DX003 (ip), vehicle: saline with Tween-80",3 of 6
same,survivor count,"dose: 25.0 mg/kg/injection, schedule: Q04DX003 (ip), vehicle: saline with Tween-80",1 of 6
same,survivor count,"dose: 100.0 mg/kg/injection, schedule: Q04DX003 (ip), vehicle: saline with Tween-80",0 of 6
same,survivor count,[3],0 of 6
same,survivor count,"dose: 400.0 mg/kg/injection, schedule: Q04DX003 (ip), vehicle: saline with Tween-80",0 of 6
Cc1cc2nc[nH]c(=O)n2n1,survivor count,[4],4 of 6
O=C1NC(c2cccs2)(c2cccs2)C(=O)N1Cl,T/C,"dose: 100.0 mg/kg/injection, schedule: Q01DX009 (ip), vehicle: water",134 % of control
same,T/C,"dose: 200.0 mg/kg/injection, schedule: Q01DX009 (ip), vehicle: water",125 % of control [5 of 6 alive]
same,survivor count,"dose: 400.0 mg/kg/injection, schedule: Q01DX009 (ip), vehicle: water",2 of 6
CCOC(=O)CCN(CCN(C)C)c1cc(O)c2c(c1O)C(=O)c1ccccc1C2=O,T/C,"dose: 100.0 mg/kg/injection, schedule: Q01DX005 (ip), vehicle: saline with Tween-80",138 % of control
same,T/C,"dose: 200.0 mg/kg/injection, schedule: Q01DX005 (ip), vehicle: saline with Tween-80",148 % of control
Cn1c(N)c(N=O)c(=O)n(C)c1=O,survivor count,"dose: 12.5 mg/kg/injection, schedule: Q01DX009 (ip), vehicle: Klucel (hydroxypropylcellulose) (HPC)",6 of 6
COc1ccc(OC)c2c1C(=O)CC2C (stereo unspecified),survivor count,[5],6 of 6
same,survivor count,"dose: 400.0 mg/kg/injection, schedule: Q01DX009 (ip), vehicle: saline",5 of 6
CC(C)(C)CC(Cl)Cl,survivor count,"dose: 300.0 mg/kg/injection, schedule: Q01DX009 (ip), vehicle: Klucel (hydroxypropylcellulose) (HPC)",2 of 6
CCOC(=O)c1cc2ccccc2oc1=O,survivor count,[6],6 of 6
COc1ccc2cc1Oc1ccc(cc1)C[C@H]1c3cc(c(OC)cc3CCN1C)Oc1c(OC)c(OC)cc3c1[C@H](C2)N(C)CC3,survivor count,[2],0 of 8
CCN(/C=C/C=C(C#N)C#N)CC,survivor count,[4],0 of 6
O=[N+]([O-])c1cccc(OCCOc2ccc(S(=O)(=O)F)cc2)c1,survivor count,[3],6 of 6
Cc1ccc2c(NCCCCCCCCNc3c4ccccc4nc4cc(C)ccc34)c3ccccc3nc2c1,T/C,"dose: 0.63 mg/kg/injection, schedule: Q01DX009 (ip), vehicle: water",131 % of control
same,T/C,"dose: 1.25 mg/kg/injection, schedule: Q01DX009 (ip), vehicle: water",144 % of control
same,T/C,"dose: 2.5 mg/kg/injection, schedule: Q01DX009 (ip), vehicle: water",146 % of control
same,T/C,"dose: 5.0 mg/kg/injection, schedule: Q01DX009 (ip), vehicle: water",140 % of control
same,survivor count,"dose: 10.0 mg/kg/injection, schedule: Q01DX009 (ip), vehicle: water",5 of 6
COc1cc(C(=O)OC2c3ccccc3CCC2N(C)C)cc(OC)c1OC (stereo unspecified),T/C,"dose: 100.0 mg/kg/injection, schedule: Q01DX009 (ip), vehicle: saline",126 % of control
same,survivor count,[5],0 of 6
CN(C)c1ccc(/C=C/c2ccnc3c(-c4ccccc4)cccc23)cc1,survivor count,[4],5 of 6
OCC1OC(n2cnc3c2NC=NC[C@H]3O)C(O)C1O (stereo partly specified),survivor count,[7],3 of 5
same,survivor count,[8],3 of 5
same,survivor count,[9],2 of 5
CCC[n+]1c(/C=C/c2c(OC)cc(OC)cc2OC)ccc2ccccc21,T/C,"dose: 0.39 mg/kg/injection, schedule: Q01DX009 (ip), vehicle: saline",130 % of control
same,survivor count,[7],3 of 6
same,T/C,[8],134 % of control [5 of 6 alive]
same,survivor count,[8],2 of 6
same,survivor count,[9],1 of 6 and 2 of 6
same,survivor count,"dose: 6.25 mg/kg/injection, schedule: Q01DX009 (ip), vehicle: saline",0 of 6
same,survivor count,"dose: 50.0 mg/kg/injection, schedule: Q01DX009 (ip), vehicle: saline with Tween-80",0 of 6
same,survivor count,[6],0 of 6
same,survivor count,[4],0 of 6
CN1CCN(C(=O)Nc2ccc(N=Nc3ccccc3)cc2)CC1,survivor count,"dose: 200.0 mg/kg/injection, schedule: Q04DX003 (ip), vehicle: saline sonified",6 of 6
CC(C)NCc1ccccc1Sc1ccccc1CNC(C)C,survivor count,"dose: 200.0 mg/kg/injection, schedule: Q01DX001 (ip), vehicle: saline with Tween-80",0 of 6
same,survivor count,"dose: 200.0 mg/kg/injection, schedule: Q04DX002 (ip), vehicle: saline",1 of 6
same,survivor count,"dose: 400.0 mg/kg/injection, schedule: Q01DX001 (ip), vehicle: saline with Tween-80",0 of 6
same,survivor count,"dose: 400.0 mg/kg/injection, schedule: Q04DX002 (ip), vehicle: saline",0 of 6
[NH-]C(CCC(N)=O)C(=O)O.[NH-]C(CCCCN)C(=O)O.[Zn+2] (stereo unspecified),survivor count,"dose: 100.0 mg/kg/injection, schedule: Q01DX005 (ip), vehicle: saline",3 of 5
same,survivor count,"dose: 200.0 mg/kg/injection, schedule: Q01DX005 (ip), vehicle: saline",0 of 5
CC1(C)N=C(N)N=C(N)N1c1cccc(OCCOc2cccc(NC(=O)CBr)c2)c1,T/C,"dose: 20.0 mg/kg/injection, schedule: Q01DX009 (ip), vehicle: saline","100 [5 of 6 alive], 110, 120 [5 of 6 alive], 135 % of control"
same,survivor count,"dose: 20.0 mg/kg/injection, schedule: Q04DX003 (ip), vehicle: saline",3 of 6
same,T/C,"dose: 30.0 mg/kg/injection, schedule: Q01DX009 (ip), vehicle: saline",125 [5 of 6 alive] and 135 % of control [5 of 6 alive]
same,survivor count,"dose: 40.0 mg/kg/injection, schedule: Q01DX009 (ip), vehicle: saline",1 of 6
same,survivor count,"dose: 40.0 mg/kg/injection, schedule: Q04DX003 (ip), vehicle: saline",3 of 6
same,survivor count,"dose: 70.0 mg/kg/injection, schedule: Q01DX009 (ip), vehicle: saline",1 of 6
same,survivor count,"dose: 80.0 mg/kg/injection, schedule: Q04DX003 (ip), vehicle: saline",0 of 6
same,survivor count,"dose: 105.0 mg/kg/injection, schedule: Q01DX009 (ip), vehicle: saline",0 of 6
C[n+]1cccc(NC(=O)c2ccc(NC(=O)c3ccc(C(=O)Nc4ccc(NC(=N)N)cc4)cc3)cc2)c1,T/C,"dose: 2.2 mg/kg/injection, schedule: Q04DX003 (ip), vehicle: saline",145 % of control
CCOC(=O)c1cccc(OP(=O)(N(C)C)N(C)C)c1,survivor count,[4],0 of 6
